Where two headings read alike, the source gives them in different places. No constants are given. Whether binding was seen depends on the method and setting. In cells and extracts the contact can be indirect. A yes stands for co-enrichment or nearness to the bait. Other partners may have been found. Tags and fused reporters may be left off the sequences shown. Each block holds one molecule with its values, some of them ahead of it.
Tests used:
FLAG-RNF8 (rat) [1] = molecular target: T1, FLAG-RNF8 (rat) (UniProt Q4KLN8); test: affinity purification with mass spectrometry; FLAG-RNF8 precipitated from Neuro2A lysate on FLAG M2 agarose, 4 h; wash 50 mM Tris-HCl pH8.0, 150 mM NaCl, 0.1% Triton X-100; eluted with 3xFLAG peptide; LC-MS/MS; ComPASS analysis
T1 sequence: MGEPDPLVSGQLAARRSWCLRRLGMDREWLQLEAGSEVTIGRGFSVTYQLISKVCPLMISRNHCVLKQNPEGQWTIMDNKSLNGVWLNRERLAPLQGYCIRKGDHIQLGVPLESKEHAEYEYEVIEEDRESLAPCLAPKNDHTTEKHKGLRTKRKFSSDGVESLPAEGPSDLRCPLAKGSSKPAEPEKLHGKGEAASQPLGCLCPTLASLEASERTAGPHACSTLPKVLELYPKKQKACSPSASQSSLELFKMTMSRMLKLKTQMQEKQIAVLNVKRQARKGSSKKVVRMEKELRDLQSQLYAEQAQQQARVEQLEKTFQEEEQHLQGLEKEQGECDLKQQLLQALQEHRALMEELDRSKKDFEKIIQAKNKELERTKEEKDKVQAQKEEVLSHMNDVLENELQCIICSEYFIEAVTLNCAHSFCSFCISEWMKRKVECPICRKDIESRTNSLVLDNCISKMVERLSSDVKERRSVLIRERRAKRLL

Amino acid sequences for entries named in this document (tags omitted).
UniProt Q4U2R1: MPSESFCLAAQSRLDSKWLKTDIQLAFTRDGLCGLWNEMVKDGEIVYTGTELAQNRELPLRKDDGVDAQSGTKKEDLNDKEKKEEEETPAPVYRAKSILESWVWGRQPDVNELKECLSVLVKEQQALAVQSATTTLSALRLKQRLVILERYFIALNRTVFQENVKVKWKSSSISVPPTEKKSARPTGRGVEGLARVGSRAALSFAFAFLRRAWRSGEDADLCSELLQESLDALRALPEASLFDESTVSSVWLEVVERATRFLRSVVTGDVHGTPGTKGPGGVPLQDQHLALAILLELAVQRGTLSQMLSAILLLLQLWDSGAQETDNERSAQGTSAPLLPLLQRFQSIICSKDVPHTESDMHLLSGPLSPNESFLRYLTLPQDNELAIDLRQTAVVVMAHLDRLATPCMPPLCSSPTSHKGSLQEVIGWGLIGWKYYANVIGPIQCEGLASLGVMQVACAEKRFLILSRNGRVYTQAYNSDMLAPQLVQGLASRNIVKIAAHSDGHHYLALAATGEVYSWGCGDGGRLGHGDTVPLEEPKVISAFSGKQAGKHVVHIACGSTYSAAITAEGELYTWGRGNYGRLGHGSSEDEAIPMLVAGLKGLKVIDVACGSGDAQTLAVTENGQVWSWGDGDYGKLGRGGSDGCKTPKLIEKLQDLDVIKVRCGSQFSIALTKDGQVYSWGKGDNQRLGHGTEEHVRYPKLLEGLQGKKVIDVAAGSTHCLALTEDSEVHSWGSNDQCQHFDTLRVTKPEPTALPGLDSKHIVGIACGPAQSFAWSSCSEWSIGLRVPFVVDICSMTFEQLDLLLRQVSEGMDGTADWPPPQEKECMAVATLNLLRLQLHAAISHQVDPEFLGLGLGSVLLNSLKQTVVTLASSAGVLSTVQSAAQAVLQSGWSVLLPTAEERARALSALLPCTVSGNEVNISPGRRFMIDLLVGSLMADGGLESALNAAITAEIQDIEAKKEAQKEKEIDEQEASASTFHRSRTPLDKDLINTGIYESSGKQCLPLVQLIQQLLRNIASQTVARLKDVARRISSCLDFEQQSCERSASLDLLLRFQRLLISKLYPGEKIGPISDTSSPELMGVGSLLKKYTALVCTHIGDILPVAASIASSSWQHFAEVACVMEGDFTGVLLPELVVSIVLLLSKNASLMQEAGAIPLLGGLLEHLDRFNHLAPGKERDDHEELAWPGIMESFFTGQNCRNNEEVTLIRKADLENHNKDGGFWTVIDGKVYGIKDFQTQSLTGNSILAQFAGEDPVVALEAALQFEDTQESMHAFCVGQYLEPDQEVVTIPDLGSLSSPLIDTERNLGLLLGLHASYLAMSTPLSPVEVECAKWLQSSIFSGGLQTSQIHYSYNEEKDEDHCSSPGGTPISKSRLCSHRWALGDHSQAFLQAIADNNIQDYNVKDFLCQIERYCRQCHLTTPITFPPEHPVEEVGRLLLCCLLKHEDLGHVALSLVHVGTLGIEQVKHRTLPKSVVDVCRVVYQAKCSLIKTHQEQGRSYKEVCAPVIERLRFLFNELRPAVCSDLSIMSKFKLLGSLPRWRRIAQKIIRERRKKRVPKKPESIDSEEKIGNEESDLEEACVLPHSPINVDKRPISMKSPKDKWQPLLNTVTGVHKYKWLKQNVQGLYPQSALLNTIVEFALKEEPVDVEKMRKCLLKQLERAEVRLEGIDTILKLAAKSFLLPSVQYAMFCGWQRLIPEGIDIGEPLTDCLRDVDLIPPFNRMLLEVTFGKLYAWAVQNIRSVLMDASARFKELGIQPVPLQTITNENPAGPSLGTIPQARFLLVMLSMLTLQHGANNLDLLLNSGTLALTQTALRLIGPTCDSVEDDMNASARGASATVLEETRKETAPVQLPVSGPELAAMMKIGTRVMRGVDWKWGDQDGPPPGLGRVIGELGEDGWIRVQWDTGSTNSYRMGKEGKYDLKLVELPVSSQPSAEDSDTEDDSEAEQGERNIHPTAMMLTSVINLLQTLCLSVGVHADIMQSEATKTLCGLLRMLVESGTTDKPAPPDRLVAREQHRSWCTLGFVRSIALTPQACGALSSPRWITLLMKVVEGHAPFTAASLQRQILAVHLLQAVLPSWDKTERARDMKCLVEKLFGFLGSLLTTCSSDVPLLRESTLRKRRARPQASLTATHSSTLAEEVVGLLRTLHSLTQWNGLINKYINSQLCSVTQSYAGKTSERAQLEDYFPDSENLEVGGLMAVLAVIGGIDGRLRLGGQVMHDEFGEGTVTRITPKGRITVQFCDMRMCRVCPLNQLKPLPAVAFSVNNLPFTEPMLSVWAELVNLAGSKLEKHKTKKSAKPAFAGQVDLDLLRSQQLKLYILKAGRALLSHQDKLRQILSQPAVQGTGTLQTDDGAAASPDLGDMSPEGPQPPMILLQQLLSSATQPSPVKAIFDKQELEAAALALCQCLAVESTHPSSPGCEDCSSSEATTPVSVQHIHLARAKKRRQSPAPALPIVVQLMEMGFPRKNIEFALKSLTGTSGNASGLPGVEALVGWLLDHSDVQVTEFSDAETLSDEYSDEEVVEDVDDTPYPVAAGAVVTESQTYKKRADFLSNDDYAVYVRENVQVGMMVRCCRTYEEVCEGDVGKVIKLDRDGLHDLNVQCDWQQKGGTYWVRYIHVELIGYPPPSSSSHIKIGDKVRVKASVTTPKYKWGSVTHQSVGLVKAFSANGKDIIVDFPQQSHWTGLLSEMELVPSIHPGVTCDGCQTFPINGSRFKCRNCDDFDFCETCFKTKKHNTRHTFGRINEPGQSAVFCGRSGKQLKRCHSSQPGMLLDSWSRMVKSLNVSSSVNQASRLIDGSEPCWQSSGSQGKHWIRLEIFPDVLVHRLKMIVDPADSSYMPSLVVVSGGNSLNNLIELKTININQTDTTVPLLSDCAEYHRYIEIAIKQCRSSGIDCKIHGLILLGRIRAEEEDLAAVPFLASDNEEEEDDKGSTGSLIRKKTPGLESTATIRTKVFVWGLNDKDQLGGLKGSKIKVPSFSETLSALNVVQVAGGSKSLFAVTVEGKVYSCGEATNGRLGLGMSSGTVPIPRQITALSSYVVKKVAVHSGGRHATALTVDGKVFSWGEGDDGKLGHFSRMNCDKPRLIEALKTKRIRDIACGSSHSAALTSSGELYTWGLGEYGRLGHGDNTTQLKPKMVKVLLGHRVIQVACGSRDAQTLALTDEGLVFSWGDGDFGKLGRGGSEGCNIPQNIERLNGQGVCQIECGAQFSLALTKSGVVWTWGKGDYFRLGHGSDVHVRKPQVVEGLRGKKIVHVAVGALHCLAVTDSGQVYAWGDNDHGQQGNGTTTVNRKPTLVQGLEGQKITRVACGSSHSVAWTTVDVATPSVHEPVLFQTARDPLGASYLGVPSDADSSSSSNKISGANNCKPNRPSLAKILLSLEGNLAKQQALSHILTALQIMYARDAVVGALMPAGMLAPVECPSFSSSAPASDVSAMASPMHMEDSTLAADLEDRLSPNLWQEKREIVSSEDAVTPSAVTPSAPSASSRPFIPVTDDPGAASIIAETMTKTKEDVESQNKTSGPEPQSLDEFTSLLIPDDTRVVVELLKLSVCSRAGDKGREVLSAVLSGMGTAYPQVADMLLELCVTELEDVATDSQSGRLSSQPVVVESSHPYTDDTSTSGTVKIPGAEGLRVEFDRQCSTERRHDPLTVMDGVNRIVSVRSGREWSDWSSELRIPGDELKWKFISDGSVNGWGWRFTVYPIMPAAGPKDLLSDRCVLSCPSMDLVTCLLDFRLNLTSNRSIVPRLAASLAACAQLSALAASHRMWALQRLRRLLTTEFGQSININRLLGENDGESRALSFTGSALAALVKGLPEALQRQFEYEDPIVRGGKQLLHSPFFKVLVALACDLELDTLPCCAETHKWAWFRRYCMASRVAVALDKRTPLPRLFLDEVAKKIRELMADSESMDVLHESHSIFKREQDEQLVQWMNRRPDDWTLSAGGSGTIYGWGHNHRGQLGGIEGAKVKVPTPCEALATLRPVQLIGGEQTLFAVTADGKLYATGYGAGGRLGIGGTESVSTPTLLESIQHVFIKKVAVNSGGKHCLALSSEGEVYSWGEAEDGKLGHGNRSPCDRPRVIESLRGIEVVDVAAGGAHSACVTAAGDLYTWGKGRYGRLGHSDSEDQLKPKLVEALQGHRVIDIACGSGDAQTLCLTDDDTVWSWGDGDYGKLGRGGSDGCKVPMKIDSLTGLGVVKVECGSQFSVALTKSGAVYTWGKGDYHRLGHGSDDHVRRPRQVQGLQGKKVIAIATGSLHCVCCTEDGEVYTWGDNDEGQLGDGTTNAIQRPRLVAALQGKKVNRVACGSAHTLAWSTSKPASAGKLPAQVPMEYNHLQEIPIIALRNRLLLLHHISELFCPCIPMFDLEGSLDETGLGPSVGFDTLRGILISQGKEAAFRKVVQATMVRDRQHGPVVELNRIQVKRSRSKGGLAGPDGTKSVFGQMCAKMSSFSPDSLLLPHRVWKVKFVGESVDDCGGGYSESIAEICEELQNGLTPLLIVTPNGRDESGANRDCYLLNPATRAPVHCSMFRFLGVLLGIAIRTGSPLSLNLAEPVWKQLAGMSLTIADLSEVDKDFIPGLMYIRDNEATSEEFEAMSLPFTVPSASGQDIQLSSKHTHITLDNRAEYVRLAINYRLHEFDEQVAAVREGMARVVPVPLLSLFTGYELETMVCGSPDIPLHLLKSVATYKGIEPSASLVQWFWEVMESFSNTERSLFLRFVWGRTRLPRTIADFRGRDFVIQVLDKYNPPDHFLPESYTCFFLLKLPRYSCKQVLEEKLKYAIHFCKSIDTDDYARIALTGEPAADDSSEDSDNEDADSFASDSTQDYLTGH
UniProt Q5NCX5: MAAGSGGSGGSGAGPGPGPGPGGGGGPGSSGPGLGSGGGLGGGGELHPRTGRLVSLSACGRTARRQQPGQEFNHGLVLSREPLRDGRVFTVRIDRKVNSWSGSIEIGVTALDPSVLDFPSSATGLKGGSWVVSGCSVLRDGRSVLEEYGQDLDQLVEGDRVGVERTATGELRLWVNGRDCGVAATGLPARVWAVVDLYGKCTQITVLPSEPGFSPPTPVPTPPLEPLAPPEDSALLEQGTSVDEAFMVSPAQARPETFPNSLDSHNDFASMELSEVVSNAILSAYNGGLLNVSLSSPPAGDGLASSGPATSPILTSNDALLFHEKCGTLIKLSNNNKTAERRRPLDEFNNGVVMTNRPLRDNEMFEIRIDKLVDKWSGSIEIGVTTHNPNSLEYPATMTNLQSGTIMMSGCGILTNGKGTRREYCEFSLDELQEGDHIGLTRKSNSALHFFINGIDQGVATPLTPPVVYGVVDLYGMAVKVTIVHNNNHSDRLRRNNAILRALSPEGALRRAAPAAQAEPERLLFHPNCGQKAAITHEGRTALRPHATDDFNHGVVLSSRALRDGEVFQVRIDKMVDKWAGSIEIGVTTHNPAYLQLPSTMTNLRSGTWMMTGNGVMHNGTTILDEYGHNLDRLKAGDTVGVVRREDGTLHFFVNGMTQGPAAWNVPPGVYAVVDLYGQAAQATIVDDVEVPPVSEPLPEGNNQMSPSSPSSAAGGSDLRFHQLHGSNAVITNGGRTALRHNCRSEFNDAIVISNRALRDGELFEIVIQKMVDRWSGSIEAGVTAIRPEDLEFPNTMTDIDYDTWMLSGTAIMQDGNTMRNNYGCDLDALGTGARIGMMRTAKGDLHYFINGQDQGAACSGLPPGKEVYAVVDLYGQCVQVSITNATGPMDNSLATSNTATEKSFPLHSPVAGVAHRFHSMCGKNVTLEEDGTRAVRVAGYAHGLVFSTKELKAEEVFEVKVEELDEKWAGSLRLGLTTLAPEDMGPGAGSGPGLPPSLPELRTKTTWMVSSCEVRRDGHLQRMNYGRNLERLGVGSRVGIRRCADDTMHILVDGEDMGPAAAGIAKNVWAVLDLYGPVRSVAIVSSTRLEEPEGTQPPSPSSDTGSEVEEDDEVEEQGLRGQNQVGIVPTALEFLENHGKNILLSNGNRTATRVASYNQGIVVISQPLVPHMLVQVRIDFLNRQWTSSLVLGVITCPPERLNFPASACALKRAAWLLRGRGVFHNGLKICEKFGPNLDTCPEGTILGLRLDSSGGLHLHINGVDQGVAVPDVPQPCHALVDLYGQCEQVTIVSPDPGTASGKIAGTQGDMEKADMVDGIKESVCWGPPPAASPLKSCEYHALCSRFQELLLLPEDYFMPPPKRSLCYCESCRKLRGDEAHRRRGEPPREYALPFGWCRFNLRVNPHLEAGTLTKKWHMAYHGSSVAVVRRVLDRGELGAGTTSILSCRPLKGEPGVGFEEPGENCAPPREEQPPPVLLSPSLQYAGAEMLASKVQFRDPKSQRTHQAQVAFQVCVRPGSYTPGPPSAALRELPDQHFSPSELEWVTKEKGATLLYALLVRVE

FLAG-RNF8 (rat) [2] = molecular target: T1, FLAG-RNF8 (rat); test: as above; remark: listed apart in the source

- binding (FLAG-RNF8 (rat) [1]): binds
Molecule: HERC2 (endogenous, Neuro2A) (from UniProt Q4U2R1 1-4836)

- binding (FLAG-RNF8 (rat) [1]): binds
Molecule: NEURL4 (endogenous, Neuro2A) (from UniProt Q5NCX5 1-1563)

- binding (FLAG-RNF8 (rat) [2]): binds
B1: Anks1 (protein, UniProt P59672 1-1150)
chain: MGKEQELLEAARTGHLPAVEKLLSGKRLSSGFGGGGGGSGSGGGSGGGGLGSSSHPLSSLLSMWRGPNVNCVDSTGYTPLHHAALNGHRDVVEVLLRNDALTNVADSKGCYPLHLAAWKGDAQIVRLLIQQGPSHTRVNEQNALEIRELKKYGPFDPYINAKNNDNETALHCAAQYGHTEVVKALLEELTDPTMRNNKFETPLDLAALYGRLEVVKLLLGAHPNLLSCSTRKHTPLHLAARNGHKAVVQVLLDAGMDSNYQTEMGSALHEAALFGKTDVVQILLAAGIDVNIKDNRGLTALDTVRDLPSQKSQQIAALIEDHMTGKRSVKEVDRTSTAQLPLLSNTDAIAPMSQGSMEKTVTELILHFDTHADEEGPYEALYNAVSCHSLDSTASGRSSDRDSMNKEAEATGTRAAGVRPRERPPPPAKPPPDEEEEERVDKKYFPLAASEGLAVRPRIQSSAPQEEEEHPYELLLTAETKKLGTTDGRTEDHRQSGSGRSQDSVEGQDGQVPEQFSGLLHGSSPVCEVGQDPFQLLTAPSQSHPESSQQDACHEASMQLEEPGVQGTEPPQPGVPDQSKRVGLPAGLTALASRTYLDALTHTVPLRPAGAEEEDQSGPRSRAPPTSKPKAELKLSRSLSKSDSDLLTCSPTEDATMGSRSESLSNCSIGKKRLEKSPSFASEWDEIEKIMSSIGEGIDFSQEQQKISGSRTLEQSVGEWLESIGLQQYESKLLLNGFDDVRFLGSNVMEEQDLREIGISDPQHRRKLLQAARSLPKVKALGYDGVSPTSVPSWLDSLGLQDYVHSFLSSGYSSIDTVKNLWELELVNVLKVHLLGHRKRIIASLADRPYEEPPQKPPRFSQLRCQDLISQTSSPLSQNDSCTGRSADLLLPSADTSRRRHDSLPDPGTASRADRFRVQEEPSETKLTLRPPSLAAPYAPVQSWQHQPEKLIFESCGYEANYLGSMLIKDLRGTESTQDACAKMRKSTEHMKKIPTIILSITYKGVKFIDASNKNVIAEHEIRNISCAAQDPEDLCTFAYITKDLQTSHHYCHVFSTVDVNLTYEIILTLGQAFEVAYQLALQAQKSRTMAASAASMIETKSSKPVPKPRVGMRKSALEPPDSDQEAPSHASVSWIVDPKPDSKRSLSTN

- binding (FLAG-RNF8 (rat) [2]): binds
B2: Gle1 (protein, UniProt Q8R322 1-699)
chain: MPSDGRCWETLRALRNTSKGRLRYDREWLLRYEDVLEECMSLPKLSSYSGWVVDHILPNTSGHTQESAPSSDNSPSSGSASGLYQSSLLKSPVRSSPQSPSPSSPNGTQSTHESPFTEPIAPQSSRAIKVEGCIRMYELAHRMRGTEGLRQWQEEQERKVRALSEMASEQLKRFDELKELKLHKEFQDLQEVMEKSTREALGHQEKLKEEHRHRAKILNLKLREAEQQRVKQAEQEQLRKEEGQVRLRSLYSLQEEVLQLNQQLDASSQHKELLSVDLAAFQTRGNQLCGLISSIIRTTLESGYPTAENQAEAERALQEMRDLLSDLEQEITRASQVKKKHEEEAKVKRQESQVQQGPAPPTQTSAPSPSPVGAQNEDLQVKVQDSTMQWYQQLQDASAKCVLAFEDLTSSKDSQTKKIKMDLQKAATIPVSQISTIAGSKLKEIFDKIHSLLSGKPVQSGGRSVSVTLNPQGLDFVQYKLAEKFVKQGEEEVASHHEAAFPIAVVASGIWMLHPKVGDLILAHLHKKCPYSVPFYPAFKEGMALEDYQRMLGYQVTDSKVEQQDNFLKRMSGMIRLYAAIIQLQWPYGNRQEAHPHGLNHGWRWLAQVLNMEPLSDVTATLLFDFLEVCGNALMKQYQVQFWKMILLIKEDYFPRIEAITSSGQMGSFIRLKQFLEKCLQRREIPVPRGFLTTSFWRS

Source: publication PMC5668370
